In PubChem BioAssay AID529 (NMMLSC, 2006):
Out of some 24,000 compounds screened, about 50 (0.2%) were called active. The inconclusive results got no clear call from the source; some entries with a clear call stand among them for comparison.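 Rule for the calls: active = inhibition above 50%; inconclusive = compound itself fluorescent, judged against control cell fluorescence; inactive = the rest.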

Protein sequences, listed by entry. Tags and fused reporters are not part of them.
UniProt P13612, whole entry, looked up: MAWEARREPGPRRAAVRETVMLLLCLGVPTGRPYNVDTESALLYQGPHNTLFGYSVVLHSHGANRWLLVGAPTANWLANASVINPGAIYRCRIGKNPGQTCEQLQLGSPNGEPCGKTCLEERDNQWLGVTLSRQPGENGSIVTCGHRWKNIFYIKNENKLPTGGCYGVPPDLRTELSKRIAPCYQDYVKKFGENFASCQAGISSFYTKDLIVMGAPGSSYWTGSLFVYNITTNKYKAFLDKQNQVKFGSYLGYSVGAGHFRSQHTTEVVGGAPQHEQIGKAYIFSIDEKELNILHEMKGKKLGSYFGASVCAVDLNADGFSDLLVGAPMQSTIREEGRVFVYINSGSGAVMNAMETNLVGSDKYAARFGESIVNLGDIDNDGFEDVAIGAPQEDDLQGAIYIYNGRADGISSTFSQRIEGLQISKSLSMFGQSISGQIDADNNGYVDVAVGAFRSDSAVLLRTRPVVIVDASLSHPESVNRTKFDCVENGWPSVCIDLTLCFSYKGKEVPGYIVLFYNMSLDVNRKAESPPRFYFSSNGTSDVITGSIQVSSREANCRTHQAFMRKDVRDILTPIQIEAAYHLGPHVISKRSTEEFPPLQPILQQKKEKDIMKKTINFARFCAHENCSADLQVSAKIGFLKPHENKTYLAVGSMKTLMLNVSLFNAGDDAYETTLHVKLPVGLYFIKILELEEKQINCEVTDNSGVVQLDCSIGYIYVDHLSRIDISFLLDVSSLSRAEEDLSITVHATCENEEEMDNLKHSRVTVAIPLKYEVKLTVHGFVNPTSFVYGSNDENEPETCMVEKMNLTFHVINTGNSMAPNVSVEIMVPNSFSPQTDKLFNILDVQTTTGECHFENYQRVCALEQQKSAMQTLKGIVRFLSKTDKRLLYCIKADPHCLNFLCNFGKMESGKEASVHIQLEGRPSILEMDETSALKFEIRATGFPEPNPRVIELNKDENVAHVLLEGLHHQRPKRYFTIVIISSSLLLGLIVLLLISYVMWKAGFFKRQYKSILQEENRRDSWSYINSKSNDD

The compounds below were run against Integrin alpha-4 (Homo sapiens) (UniProt P13612) (assay: blockers of LDV-FITC ligand binding on VLA-4 – Jurkat cells, Mn2+ activated, primary screen (AID 529;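 for inhibition: 0% = Mn2+ stimulated cells lacking compound and 100% = ligand binding without Mn2+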)). Conditions: LDV-FITC binding with Mn2+, flow cytometry; active compounds read high, screened at 10 µM (by protocol), 100% = Mn2+-driven binding gain fully reversed unless noted.
For `CC1CCOC2(O1)C(=O)N(CN1CCN(c3ccccc3F)CC1)c1ccccc12` (centres undefined), the inhibition was “inconclusive”.
With `Cn1cnc2c1c(=O)n(Cc1ccccc1)c(=O)n2C` the inhibition was “inconclusive”.
With `Cn1c(Cn2c(=O)sc3ccccc32)nnc1SCC(=O)Nc1ccccc1F` the inhibition was “inconclusive”.
In the case of `CC(C)(C)c1ccc(C(=O)NCCC(=O)NCc2ccco2)cc1`, the inhibition is reported as inactive: -4% [active compounds read high, 100% = Mn2+-driven binding gain fully reversed, screened at 10 µM (by protocol)].
`COc1cccc(-n2c(Cc3cc(=O)[nH]c(=O)[nH]3)nnc2SCC(=O)N2CCCCC2)c1` was tested, and the inhibition was inactive: -11%.
With `COc1ccc(C(=O)O)cc1Nc1cc(C)nc2ncnn12` the inhibition was inactive: -14%.
`Cc1nc2sc(C(c3ccco3)N3CCC4(CC3)OCCO4)c(O)n2n1` (centres undefined) was tested, and the inhibition was “inconclusive”.
With `O=C(CCCn1c(=S)[nH]c2ccccc2c1=O)N1CCOCC1` the inhibition was “inconclusive”.
In the case of `O=C(NCc1ccco1)C1CCC(CNS(=O)(=O)c2cccc3cccnc23)CC1` (centres undefined), the inhibition is reported as “inconclusive”.
In the case of `Cc1cc(=O)oc(C)c1C(=O)NCC1COc2ccccc2O1` (centres undefined), the inhibition is reported as “inconclusive”.
With `COC(=O)c1c(N)n(-c2cc(OC)cc(OC)c2)c2nc3ccccc3nc12` the inhibition was “inconclusive”.
`CC1=NC(Nc2nc(C)c3ccccc3n2)=NC(C)(C)C1` was tested, and the inhibition was “inconclusive”.
With `Cc1ccc(C)c(N2CCN(C(=O)CN3C(=O)c4ccccc4C3=O)CC2)c1` the inhibition was “inconclusive”.
With `CCOc1ccc(NC(=O)CN2C(=O)C3CCCN3C2=O)cc1` (centres undefined) the inhibition was inactive: 1%.
In the case of `COCCn1c(=O)[nH]c2cc(C(=O)NCCN3CCN(c4ccccc4F)CC3)ccc2c1=O`, the inhibition is reported as “inconclusive”.
With `c1ccc2c(c1)ccc1nnc(-c3ccc4c(c3)OCO4)n12` the inhibition was inactive: 5%.
`Nc1cccc2c1C(=O)N(c1ccccc1)C2=O` was tested, and the inhibition was inactive: -2.5%.
With `CCOC(=O)c1ccc(NC(=O)N2CCN(Cc3cccc(F)c3)CC2)cc1` the inhibition was inactive: -1.5%.
In the case of `CC1CCN(S(=O)(=O)c2ccc3ncn(CC(=O)N(C)Cc4ccccc4)c(=O)c3c2)CC1`, the inhibition is reported as “inconclusive”.
In the case of `CCn1nc(C)c(/C=C2\CCCC3=C2OC(N)=C(C#N)C3c2c(C)nn(CC)c2C)c1C` (centres undefined), the inhibition is reported as “inconclusive”.
With `Cc1ccc(C)c(N2CCN(C(=O)COc3cc(=O)n(C)c4ccccc34)CC2)c1` the inhibition was “inconclusive”.
With `CN(CCNC(=O)CCNC(=O)Cn1ccc2ccccc2c1=O)Cc1ccccc1` the inhibition was “inconclusive”.
`Cn1c(-c2ccc(F)cc2)cnc1SCC(=O)Nc1ccccc1N1CCOCC1` was tested, and the inhibition was “inconclusive”.
`CCOC(=O)CN(Cc1ccccc1)S(=O)(=O)c1ccc(NC(C)=O)cc1` was tested, and the inhibition was “inconclusive”.
In the case of `CCn1c(CCNC(=O)c2cccs2)nnc1SCC(=O)c1ccc(OC)cc1`, the inhibition is reported as inactive: -18%.
For `CCc1nc2sc3c(c2c(=O)o1)CCCC3`, the inhibition was “inconclusive”.
With `CCOC(=O)C1CCCN(C(=O)CCn2nc(-c3ccccc3)ccc2=O)C1` (centres undefined) the inhibition was inactive: -4%.
For `Cc1ccccc1-c1nc(CS(=O)(=O)CC(=O)NCCCN2C(C)CCCC2C)c(C)o1` (centres undefined), the inhibition was “inconclusive”.
With `CCCN1Cc2cccc(C(=O)Nc3ccc4c(c3)OCO4)c2C1=O` the inhibition was “inconclusive”.
`COc1ccc(N(CC(=O)O)S(=O)(=O)c2cccnc2)cc1` was tested, and the inhibition was “inconclusive”.
In the case of `COc1ccc(-c2nc(-c3ccc(NC(=O)c4ccc(Br)o4)cc3)no2)cc1OC`, the inhibition is reported as inactive: -3%.
With `CCC(C)NC(=O)Cn1cc2c(n1)CCC(C)C2` (centres undefined) the inhibition was “inconclusive”.
With `COc1ccc2sc(NC(=O)c3ccco3)nc2c1` the inhibition was “inconclusive”.
In the case of `CCOc1ccc(NC(=O)c2nnn(CC(=O)Nc3ccccc3OCC)c2N)cc1`, the inhibition is reported as “inconclusive”.
For `Cc1ccc(S(=O)(=O)n2nc(OC(=O)c3ccco3)cc2N)cc1`, the inhibition was “inconclusive”.
`Cc1cc(=O)[nH]c(SCc2nc3ccccc3n2Cc2ccccc2)n1` was tested, and the inhibition was “inconclusive”.
`COc1ccc(-c2cc3nc(C)cc(C)n3n2)c(OC)c1` was tested, and the inhibition was inactive: -12%.
In the case of `COc1ccc(C2C(C(=O)Nc3ccccc3OC)=C(C)Nc3nnnn32)c(OC)c1` (centres undefined), the inhibition is reported as inactive: 3% [active compounds read high, 100% = Mn2+-driven binding gain fully reversed, screened at 10 µM (by protocol)].
`C=CCn1c(CCCNC(=O)CCC)nc2ccccc21` was tested, and the inhibition was inactive: -32%.
For `CN1C(=O)CSc2ccc(NC(=O)N3CCc4ccccc43)cc21`, the inhibition was “inconclusive”.
In the case of `COc1ccc(CNC(=O)CCCCCn2c(SCC#N)nc3cc4c(cc3c2=O)OCO4)cc1`, the inhibition is reported as inactive: -2%.
`CCOC(=O)N1CCN(C(=O)c2ccc3c(c2)NC(=O)C(N2CCOCC2)S3)CC1` (centres undefined) was tested, and the inhibition was “inconclusive”.
With `COc1cc(C2NC(C(=O)O)CS2)ccc1OCc1ccccc1C#N` (centres undefined) the inhibition was inactive: 0%.
For `COc1ccc2nc3oc(C(=O)N4CCN(c5ccccc5F)CC4)cc3cc2c1`, the inhibition was “inconclusive”.
`Nc1nonc1-c1nc2ccccc2n1CCC(=O)O` was tested, and the inhibition was “inconclusive”.
With `Cn1c(=O)[nH]c(=O)c2c1nc(N1CCNCC1)n2CCOc1ccccc1` the inhibition was “inconclusive”.
With `CCCCN(C)CCCNC(=O)c1ccc2c(c1)NC(=O)C(N1CCOCC1)S2` (centres undefined) the inhibition was “inconclusive”.
For `O=C(CN1C(=O)C2C3C=CC(C3)C2C1=O)NCCc1ccccc1Cl` (centres undefined), the inhibition was “inconclusive”.
In the case of `N#Cc1c(NC(=O)c2ccc(Br)o2)n(-c2ccccc2)c2nc3ccccc3nc12`, the inhibition is reported as “inconclusive”.
For `CCOC(=O)c1ccc(N2CSC3=C(C#N)C(c4ccc(OC)cc4OC)CC(=O)N3C2)cc1` (centres undefined), the inhibition was “inconclusive”.
`Cc1ccc2c(c1C)NC(C(=O)O)C1CC=CC21` (centres undefined) was tested, and the inhibition was “inconclusive”.
`O=C(C1CC1)N1CCc2cc(Br)cc(S(=O)(=O)N3CCCCCC3)c21` was tested, and the inhibition was “inconclusive”.
`CC(=O)CC1OC(=O)C(Br)=C1NCc1ccccc1` (centres undefined) was tested, and the inhibition was “inconclusive”.
`CC1=CCC2C(=O)N(c3ccc(C)c(Br)c3)C(=O)C2C1` (centres undefined) was tested, and the inhibition was inactive: 17%.
For `CC1(C)CC(=O)C2=C(C1)N(CC1CCCO1)C(=O)C2(O)C(F)(F)F` (centres undefined), the inhibition was “inconclusive”.
In the case of `CCCCNC(=O)CSc1nc2ccccc2c(=O)n1C1CCCC1`, the inhibition is reported as “inconclusive”.
In the case of `Cc1ccc2oc(=O)c3cnn(CC(=O)NCCCOC(C)C)c3c2c1`, the inhibition is reported as “inconclusive”.
With `CCOc1cc2c(cc1OCC)C(c1cc(OC)c(O)c(OC)c1)NCC2` (centres undefined) the inhibition was inactive: -29.5%.
For `CN(C(=O)C1CCCO1)c1nnc(-c2ccncc2)s1` (centres undefined), the inhibition was “inconclusive”.
`CCOC(=O)CC1Sc2ccccc2NC1=O` (centres undefined) was tested, and the inhibition was “inconclusive”.
In the case of `COc1ccc(C)cc1NC(=O)CN(Cc1nnc(-c2ccc(Cl)cc2)o1)C1CCCC1`, the inhibition is reported as “inconclusive”.
For `O=C(NCC1CCCO1)C1CCN(S(=O)(=O)c2cccnc2)CC1` (centres undefined), the inhibition was “inconclusive”.
`CCN(CC)CCNC(=O)C1c2ccccc2C(=O)N(C)C1c1cn(C)c2ccccc12` (centres undefined) was tested, and the inhibition was “inconclusive”.
In the case of `O=C(NCCN1CCN(c2ccccc2)CC1)C1CCCN(S(=O)(=O)c2cnc[nH]2)C1` (centres undefined), the inhibition is reported as “inconclusive”.
In the case of `O=C(C(Cc1ccccc1)n1cccc1)N1CCN(c2ncccn2)CC1` (centres undefined), the inhibition is reported as “inconclusive”.
For `Cc1nnc2ccc(N3CCN(c4ccccn4)CC3)nn12`, the inhibition was “inconclusive”.
With `O=C(NCCN1C(=O)C2C3C=CC(C3)C2C1=O)Nc1ccccc1` (centres undefined) the inhibition was “inconclusive”.
For `O=Nc1c2nc3ccccc3n(O)c-2c2ccccc12`, the inhibition was “inconclusive”.
With `Cc1cccc(C)c1Nc1nc2ccccc2o1` the inhibition was “inconclusive”.
For `Cc1ccccc1C1CC(c2ccc(Br)cc2)Nc2nc(N)nn21` (centres undefined), the inhibition was “inconclusive”.
In the case of `CCOC(=O)C1=C(O)CCn2c1nc1ccccc12`, the inhibition is reported as “inconclusive”.
In the case of `Cc1ccccc1-c1ccc(C=Nc2c(C)n(C)n(-c3ccccc3)c2=O)o1`, the inhibition is reported as “inconclusive”.
`CCC(C)C(NS(=O)(=O)c1ccc(C)cc1)C(=O)NCCN1CCOCC1` (centres undefined) was tested, and the inhibition was inactive: 0%.
For `O=S(=O)(NC1CCCc2ccccc21)c1cnc[nH]1` (centres undefined), the inhibition was “inconclusive”.
With `Cc1c(C(=O)O)oc2ccc(S(=O)(=O)N3CCC(C)CC3)cc12` the inhibition was “inconclusive”.
In the case of `CCOc1ccc(N(CC(=O)N2CC=C(c3ccccc3)CC2)S(=O)(=O)c2c(C)noc2C)cc1`, the inhibition is reported as inactive: -2.4%.
With `COc1ccc(Cl)c(NC(=O)NCCN2CCN(c3ccccc3)CC2)c1` the inhibition was inactive: 12%.
With `CCC1CCCCN1c1nc(-c2ccncc2)nc2ccccc12` (centres undefined) the inhibition was inactive: -18%.
For `O=C(NCc1ccccc1)c1cc(=O)nc2sc(-c3ccccc3)nn12`, the inhibition was “inconclusive”.
With `CCOCCOC(=O)C1=C(C)N(C)C(=O)NC1c1cc(Cl)c(O)c(OC)c1` (centres undefined) the inhibition was inactive: -14%.
With `Cc1ccccc1CN1CCN(CC(=O)NCc2ccc3c(c2)OCO3)C1=O` the inhibition was “inconclusive”.
With `CCCNC(=O)CS(=O)Cc1nc(-c2ccccc2C)oc1C` (centres undefined) the inhibition was “inconclusive”.
With `CC(C)(C)C(=O)CNS(=O)(=O)c1ccc(S(=O)(=O)NC2CCCC2)cc1` the inhibition was inactive: -1%.
For `O=C(O)CCc1ccc(-c2cccs2)n1CCC(=O)O`, the inhibition was “inconclusive”.
`O=C1CCCC2=C1C(c1cccs1)n1nc(SCc3ccccc3F)nc1N2` (centres undefined) was tested, and the inhibition was “inconclusive”.
For `Cc1nnc(NC(=O)c2ccc(S(=O)(=O)N(C)Cc3ccccc3)cc2)o1`, the inhibition was “inconclusive”.
For `O=C(CC(NS(=O)(=O)c1ccc(Cl)cc1)c1ccco1)NC1CCCC1` (centres undefined), the inhibition was inactive: 1% [active compounds read high, 100% = Mn2+-driven binding gain fully reversed, screened at 10 µM (by protocol)].
For `CCOC(=O)Cc1nn2c(=O)cc(C)nc2s1`, the inhibition was inactive: -17%.
With `O=C(c1ccco1)N1CCN=C1SCc1c(F)cccc1Cl` the inhibition was “inconclusive”.
In the case of `O=C(Nc1ccc(F)cc1)C1CCCN(S(=O)(=O)c2cccc3cccnc23)C1` (centres undefined), the inhibition is reported as inactive: 13%.
In the case of `Cc1c(C(=O)Nc2ccc(F)cc2)oc2ccc(S(=O)(=O)N3CCCC3)cc12`, the inhibition is reported as “inconclusive”.
`Cc1ccc2nc(N3CCOCC3)c3nncn3c2c1` was tested, and the inhibition was “inconclusive”.
In the case of `COC(=O)c1ccc(CSc2nc(-c3ccc(OC)cc3)nc3c2c(=O)n(C)c(=O)n3C)o1`, the inhibition is reported as inactive: -21.3%.
`CCOC(=O)N1CCC(NC(=O)c2ccc3c(c2)sc2nc(-c4ccccc4)cn23)CC1` was tested, and the inhibition was “inconclusive”.
